Test results published in patent US10067136B1, “Photoactivatable probes and uses thereof” (University of South Florida, priority 2016, dated 2018).

Assay: UV photoactivation in d4-methanol followed by 19F NMR (diazirine / linear diazo / carbene insertion product)
Assay type: physicochemical
Settings: UV irradiation

OCc1ccc(C2(C(F)(F)F)N=N2)cn1 [compound 1, (5-(3-(trifluoromethyl)-3H-diazirin-3-yl)pyridin-2-yl)methanol]
peak share of linear diazo intermediate during UV activation: about 30%

OCc1ncc(C2(C(F)(F)F)N=N2)cn1 [compound 2, (5-(3-(trifluoromethyl)-3H-diazirin-3-yl)pyrimidin-2-yl) methanol]
peak share of linear diazo intermediate during UV activation: about 30%

OCc1ccc(C2(C(F)(F)F)N=N2)cc1 [compound 3, (4-(3-(trifluoromethyl)-3H-diazirin-3-yl)phenyl)methanol, reference compound]
peak share of linear diazo intermediate during UV activation: about 30%
